Test: general procedure: solution-phase peptide synthesis; azide method (isoamylnitrite/HCl), p-nitrophenyl active esters (ONp), mixed anhy

| Substance | step yield (late stage modification step) | step yield (coupling step) |
| --- | --- | --- |
| H-Ala-Gln-Ser-Gly-Leu-Gly-Cys(SH)-Asn-Ser-Phe-Arg-Tyr-OH | 33% | – |
| H-Ile-Gly-Ala-Gln-Ser-Gly-Leu-Gly-Cys(SH)-Asn-Ser-Phe-Arg-Tyr-OH | 80% | – |
| Z(OMe)-Ala-Gln-Ser-Gly-NHNH2 | 96% | – |
| Z(OMe)-Ala-Gln-Ser-Gly-OBzl | – | 80% |
| Z(OMe)-Asn-Ser-Phe-Arg(Mts)-Tyr-OBzl | – | 79% |
| Z(OMe)-Cys(Tmb)-Asn-Ser-Phe-Arg(Mts)-Tyr-OBzl | – | 83% |
| Z(OMe)-Leu-Gly-Cys(Tmb)-Asn-Ser-Phe-Arg(Mts)-Tyr-OBzl | – | 91% |
| Z(OMe)-Ser-Phe-Arg(Mts)-Tyr-OBzl | – | 76% |
